Columns and labels:
[1] = test system: hepatic reduced ubiquinol-9; assay: Hepatic reduced ubiquinol-9 by HPLC with electrochemical detection; format: in vivo, male Sprague-Dawley rats; conditions: in relation to TCDC or vitamin E treatment
[2] = format: in vivo, male Sprague-Dawley rats; conditions: Control/TCDC, n = 13
Description: Rats were divided into two treatment groups. One group was pretreated with parenteral Vitamin E (all-rac-alpha tocopherol, […], Hoffmann-LaRoche,Nutley, N.J.). The other group was not pretreated. These rats then received either vehicle or TCDC (10 μmol/[…]) by tail vein injection (as described in Example 1). […] All i.p. injections were administered under light methoxyflurane anesthesia. Following the vitamin E or saline injections, rats were randomly assigned to receive a tail vein bolus injection of either TCDC or vehicle. Rats were sacrificed four hours later and serum was analyzed for AST, ALT, total bilirubin and alkaline phosphatase. […] The serum alpha tocopherol:total lipids ratio (mg/gm) was calculated as an additional index of vitamin E status^41. The liver was rapidly removed at sacrifice, the hepatic mitochondria were isolated as set forth above and analyzed for lipid-conjugated dienes as described above. A specimen of liver was also immediately frozen, protected from light and stored at -70° C. and subsequently analyzed for alpha tocopherol and reduced ubiquinol-9 by HPLC with electrochemical detection^42. The results were expressed as nmol alpha tocopherol or nmol reduced ubiquinol-9 per gram wet weight of liver.

Cc1c(C)c2c(c(C)c1O)CCC(C)(CCCC(C)CCCC(C)CCCC(C)C)O2 (racemic) [Vitamin E, all-rac-alpha tocopherol]
Hepatic ubiquinol-9 concentrations, change [1]: No changes

C[C@H](CCC(=O)NCCS(=O)(=O)O)[C@H]1CC[C@H]2[C@@H]3[C@H](O)C[C@@H]4C[C@H](O)CC[C@]4(C)[C@H]3CC[C@]12C [TCDC, taurochenodeoxycholic acid]
Serum alpha tocopherol [2]: 5.5 ± 0.3 µg/mL | Serum alpha tocopherol/total lipids [2]: 1.47 ± 0.13 mg/gm | Hepatic ubiquinol-9 concentrations, change [1]: No changes

From patent publication US6069167A, “Use of antioxidant agents to treat cholestatic liver disease” (priority 1997, dated 2000)
